{"source": "PubChem BioAssay AID1259261 (Sanger Institute, 2017)", "screen": "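Find kinase silencing that cuts viability alone or with anchor drugs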 (primary screen)", "system": "HCC2998 human colorectal cancer cells", "knock-down reagent": "siRNA pool against human genes", "challenge": "anchor drugs BYL719 1 µM, cetuximab 5 µg/ml or trametinib 10 nM, each compared with DMSO vehicle", "detection": "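Cell viability relative to non-targeting siRNA, averaged over replicates, with robust z-score for siRNA alone and synergy scores with each anchor drug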", "scale": "viability z-score, knock-down alone: higher = more viable cells than controls", "rule for the call": "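a knock-down is called essential if its robust z-score without drug is under -3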", "meaning of the calls": "active = essential; inactive = no change", "note": "In all, the deposit lists 794 reagents; shown is a random part of them. Over the whole deposit, 10 (1.3%) were called active. 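Calls reflect knock-down alone without drug; synergy scores with BYL719, cetuximab or trametinib do not affect calls.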 Entries without a mark were called inactive. Further read-outs or replicates are left out here. Reagent sequences are not shown. The record does not give: the amount of reagent, the time to read-out."}
{"Gene": "NME2 (NME/NM23 nucleoside diphosphate kinase 2)", "viability z-score, knock-down alone": 0.826}
{"Gene": "TTBK1 (tau tubulin kinase 1)", "viability z-score, knock-down alone": -1.26}
{"Gene": "EPHA5 (EPH receptor A5)", "viability z-score, knock-down alone": 0.0844}
{"Gene": "CDADC1 (cytidine and dCMP deaminase domain containing 1)", "viability z-score, knock-down alone": 0.94}
{"Gene": "RIPK4 (receptor interacting serine/threonine kinase 4)", "viability z-score, knock-down alone": 1.21}
{"Gene": "CLK3 (CDC like kinase 3)", "viability z-score, knock-down alone": -1.25}
{"Gene": "GRK6 (G protein-coupled receptor kinase 6)", "viability z-score, knock-down alone": 1.21}
{"Gene": "AK2 (adenylate kinase 2)", "viability z-score, knock-down alone": 0.709}
{"Gene": "CSNK1A1L (casein kinase 1 alpha 1 like)", "viability z-score, knock-down alone": 0.65}
{"Gene": "SRGAP3 (SLIT-ROBO Rho GTPase activating protein 3)", "viability z-score, knock-down alone": 0.318}
{"Gene": "MAP2K7 (mitogen-activated protein kinase kinase 7)", "viability z-score, knock-down alone": -0.132}
{"Gene": "EXOSC10 (exosome component 10)", "viability z-score, knock-down alone": -0.46}
{"Gene": "PINK1 (PTEN induced kinase 1)", "viability z-score, knock-down alone": 0.34}
{"Gene": "CDK20 (cyclin dependent kinase 20)", "viability z-score, knock-down alone": 0.552}
{"Gene": "LMTK3 (lemur tail kinase 3)", "viability z-score, knock-down alone": 0.442}
{"Gene": "GNAS (GNAS complex locus)", "viability z-score, knock-down alone": -0.538}
{"Gene": "CALM3 (calmodulin 3)", "viability z-score, knock-down alone": -0.883}
{"Gene": "PI4KA (phosphatidylinositol 4-kinase alpha)", "viability z-score, knock-down alone": 1.21}
{"Gene": "PPP2R1A (protein phosphatase 2 scaffold subunit Aalpha)", "viability z-score, knock-down alone": -0.0858}

2 entries from above, sorted by “viability z-score, knock-down alone”, descending.
{"Gene": "LMTK3 (lemur tail kinase 3)", "viability z-score, knock-down alone": 0.442}
{"Gene": "GNAS (GNAS complex locus)", "viability z-score, knock-down alone": -0.538}
